# This is one part of the list.
# Compound: Cc1cc(ccc1-c1ccccc1)C(=O)N1CCCN(CC1)C(=O)CCl [compound 10]
# Test: probe-labelled cysteine peptide fold change vs DMSO (competition) (log2 fold change); higher = less target engagement (more negative = stronger competition)
# Conditions: 10 µM; THP-1; incubation time: 4 h
# 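Note: competitive profiling in live THP-1 cells: cysteine peptides tagged with an iodoacetamide desthiobiotin (IA-DTB) probe, intensity after compound treatment relative to DMSO-treated cells.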
row,Target,probe-labelled cysteine peptide fold change
1,MKLN1_Q9UL63_411_ILTCNGSVDDSR (UniProt Q9UL63),-0.0665
2,MRC2_Q9UBG0_532_GWTWHSPSCYWLGEDQVTYSEAR (UniProt Q9UBG0),-0.0596
3,MKRN1_Q9UHC7_259_SCIEAHEK (UniProt Q9UHC7),-0.0884
4,MND1_Q9BWT6_147_DCDPQVVEEIR (UniProt Q9BWT6),-0.122
5,MKLN1_Q9UL63_128_HKIDEQMFPCR (UniProt Q9UL63),0.0221
6,MRPL53_Q96EL3_21_VQFCPFEK (UniProt Q96EL3),0.0106
7,MRPL10_Q7Z7H8_180_TVPFLPLLGGCIDDTILSR (UniProt Q7Z7H8),0.134
8,MRPL46_Q9H2W6_210_FLGNAPCGHYTFK (UniProt Q9H2W6),0.00398
9,MOSPD2_Q8NHP6_471_TSEDICLQLSR (UniProt Q8NHP6),0.0382
10,MRPL37_Q9BZE1_153_NHIENQDECVLNVISHAR (UniProt Q9BZE1),-0.0845
11,MMTAG2_Q9BU76_179_AEDQTESSCESHRK (UniProt Q9BU76),0.00151
12,MOB3A_Q96BX8_88_VNLIYGTISDGCTEQSCPVMSGGPK (UniProt Q96BX8),0.233
13,MNDA_P41218_385_LVCGSHSFIK (UniProt P41218),-0.157
14,MPI_P34949_11_VFPLSCAVQQYAWGK (UniProt P34949),-0.118
15,MOB4_Q9Y3A3_78_QFCLELNGLAVK (UniProt Q9Y3A3),0.0886
16,MLYCD_O95822_206_VTWHSPCEVLQK (UniProt O95822),-0.102
17,MICAL2_O94851_478_YPNLNSHCVRPHQVK (UniProt O94851),-0.0816
18,MRPL18_Q9H0U6_125_NVVACESIGR (UniProt Q9H0U6),-0.152
19,MPHOSPH8_Q99549_753_LALLEPVFPIACHR (UniProt Q99549),0.0715

row,Target,probe-labelled cysteine peptide fold change
1,MON2_Q7Z3U7_592_AELTMAALCGR (UniProt Q7Z3U7),0.222
2,MORF4L1_Q9UBU8_19_VLCFHGPLLYEAK (UniProt Q9UBU8),0.421
3,MLH1_P40692_233_ELIEIGCEDK (UniProt P40692),-0.0665
4,MRPL33_O75394_29_MVSEAGTGFCFNTK (UniProt O75394),-0.0873
5,MRPL43_Q8N983_91_VVAEYLNGAVREESIHCK (UniProt Q8N983),-0.15
6,MRC2_Q9UBG0_213_EDGHLWCATTQDYGKDER (UniProt Q9UBG0),-0.11
7,MIF_P14174_60_ASVPDGFLSELTQQLAQATGKPPQYIAVHVVPDQLMAFGGSSEPCALCSLHSIGK (UniProt P14174),0.1
8,MOCS3_O95396_193_YLVNDACVLAGRPLVSASALR (UniProt O95396),-0.0959
9,MIOS_Q9NXC5_621_VAFACK (UniProt Q9NXC5),0.0521
10,MLKL_Q8NB16_437_QQEPLGEDCPSELR (UniProt Q8NB16),-0.194
11,MRPL19_P49406_248_GIRFDLCLTEQQMK (UniProt P49406),0.0227
12,MOB4_Q9Y3A3_134_HTLDGAACLLNSNK (UniProt Q9Y3A3),-1.14
13,MICALL1_Q8N3F8_597_GSSGPQPAKPCSGATPTPLLLVGDR (UniProt Q8N3F8),-0.17
14,MLST8_Q9BVC4_34_FWQAHSGICTR (UniProt Q9BVC4),-0.182
15,MPP1_Q00013_242_VASMAQSAPSEAPSCSPFGKK (UniProt Q00013),-0.328
16,MILR1_Q7Z6M3_38_TNEFPSPCLDSK (UniProt Q7Z6M3),-0.33
17,MIPEP_Q99797_142_EAAEEACR (UniProt Q99797),-0.0572
18,MRI1_Q9BV20_285_HHGIPFYVAAPSSSCDLR (UniProt Q9BV20),0.0336

# Same assay, conditions: 50 µM; THP-1; incubation time: 4 h
row,Target,probe-labelled cysteine peptide fold change
1,MKLN1_Q9UL63_411_ILTCNGSVDDSR (UniProt Q9UL63),-0.214
2,MRC2_Q9UBG0_532_GWTWHSPSCYWLGEDQVTYSEAR (UniProt Q9UBG0),-0.127
3,MKRN1_Q9UHC7_259_SCIEAHEK (UniProt Q9UHC7),-0.311
4,MND1_Q9BWT6_147_DCDPQVVEEIR (UniProt Q9BWT6),-0.0556
5,MKLN1_Q9UL63_128_HKIDEQMFPCR (UniProt Q9UL63),-0.00626
6,MRPL53_Q96EL3_21_VQFCPFEK (UniProt Q96EL3),-0.103
7,MRPL10_Q7Z7H8_180_TVPFLPLLGGCIDDTILSR (UniProt Q7Z7H8),0.222
8,MRPL46_Q9H2W6_210_FLGNAPCGHYTFK (UniProt Q9H2W6),-0.095
9,MOSPD2_Q8NHP6_471_TSEDICLQLSR (UniProt Q8NHP6),-0.112
10,MRPL37_Q9BZE1_153_NHIENQDECVLNVISHAR (UniProt Q9BZE1),-0.164
11,MMTAG2_Q9BU76_179_AEDQTESSCESHRK (UniProt Q9BU76),-0.408
12,MOB3A_Q96BX8_88_VNLIYGTISDGCTEQSCPVMSGGPK (UniProt Q96BX8),0.292
13,MNDA_P41218_385_LVCGSHSFIK (UniProt P41218),0.177
14,MPI_P34949_11_VFPLSCAVQQYAWGK (UniProt P34949),-0.00117
15,MOB4_Q9Y3A3_78_QFCLELNGLAVK (UniProt Q9Y3A3),0.236
16,MLYCD_O95822_206_VTWHSPCEVLQK (UniProt O95822),-0.329
17,MICAL2_O94851_478_YPNLNSHCVRPHQVK (UniProt O94851),-0.303
18,MRPL18_Q9H0U6_125_NVVACESIGR (UniProt Q9H0U6),0.104
19,MPHOSPH8_Q99549_753_LALLEPVFPIACHR (UniProt Q99549),-0.0714

row,Target,probe-labelled cysteine peptide fold change
1,MON2_Q7Z3U7_592_AELTMAALCGR (UniProt Q7Z3U7),0.176
2,MORF4L1_Q9UBU8_19_VLCFHGPLLYEAK (UniProt Q9UBU8),0.355
3,MLH1_P40692_233_ELIEIGCEDK (UniProt P40692),0.279
4,MRPL33_O75394_29_MVSEAGTGFCFNTK (UniProt O75394),0.047
5,MRPL43_Q8N983_91_VVAEYLNGAVREESIHCK (UniProt Q8N983),-0.299
6,MRC2_Q9UBG0_213_EDGHLWCATTQDYGKDER (UniProt Q9UBG0),-1.01
7,MIF_P14174_60_ASVPDGFLSELTQQLAQATGKPPQYIAVHVVPDQLMAFGGSSEPCALCSLHSIGK (UniProt P14174),0.243
8,MOCS3_O95396_193_YLVNDACVLAGRPLVSASALR (UniProt O95396),-0.0303
9,MIOS_Q9NXC5_621_VAFACK (UniProt Q9NXC5),0.235
10,MLKL_Q8NB16_437_QQEPLGEDCPSELR (UniProt Q8NB16),0.11
11,MRPL19_P49406_248_GIRFDLCLTEQQMK (UniProt P49406),-0.146
12,MOB4_Q9Y3A3_134_HTLDGAACLLNSNK (UniProt Q9Y3A3),-3.77
13,MICALL1_Q8N3F8_597_GSSGPQPAKPCSGATPTPLLLVGDR (UniProt Q8N3F8),-0.459
14,MLST8_Q9BVC4_34_FWQAHSGICTR (UniProt Q9BVC4),0.0338
15,MPP1_Q00013_242_VASMAQSAPSEAPSCSPFGKK (UniProt Q00013),-0.951
16,MILR1_Q7Z6M3_38_TNEFPSPCLDSK (UniProt Q7Z6M3),-0.591
17,MIPEP_Q99797_142_EAAEEACR (UniProt Q99797),0.21
18,MRI1_Q9BV20_285_HHGIPFYVAAPSSSCDLR (UniProt Q9BV20),-0.0315

# — the supplement of paper PMC12067093, “Discovery and optimisation of a covalent ligand for TRIM25 and its application to targeted protein ubiquitination” (Chemical Science, 2025)
